Assay results from the supplement of paper PMC11006884.
The targets with a hit were mostly taken out for another list; the other results follow. This is a noisy data set. Only a part is listed here, and it is no random draw.

Chains of the proteins cited; added tags and fusions are not shown. Lines headed by an entry give the natural chain unless they say otherwise; changes in a name come on top.
UniProt P15924: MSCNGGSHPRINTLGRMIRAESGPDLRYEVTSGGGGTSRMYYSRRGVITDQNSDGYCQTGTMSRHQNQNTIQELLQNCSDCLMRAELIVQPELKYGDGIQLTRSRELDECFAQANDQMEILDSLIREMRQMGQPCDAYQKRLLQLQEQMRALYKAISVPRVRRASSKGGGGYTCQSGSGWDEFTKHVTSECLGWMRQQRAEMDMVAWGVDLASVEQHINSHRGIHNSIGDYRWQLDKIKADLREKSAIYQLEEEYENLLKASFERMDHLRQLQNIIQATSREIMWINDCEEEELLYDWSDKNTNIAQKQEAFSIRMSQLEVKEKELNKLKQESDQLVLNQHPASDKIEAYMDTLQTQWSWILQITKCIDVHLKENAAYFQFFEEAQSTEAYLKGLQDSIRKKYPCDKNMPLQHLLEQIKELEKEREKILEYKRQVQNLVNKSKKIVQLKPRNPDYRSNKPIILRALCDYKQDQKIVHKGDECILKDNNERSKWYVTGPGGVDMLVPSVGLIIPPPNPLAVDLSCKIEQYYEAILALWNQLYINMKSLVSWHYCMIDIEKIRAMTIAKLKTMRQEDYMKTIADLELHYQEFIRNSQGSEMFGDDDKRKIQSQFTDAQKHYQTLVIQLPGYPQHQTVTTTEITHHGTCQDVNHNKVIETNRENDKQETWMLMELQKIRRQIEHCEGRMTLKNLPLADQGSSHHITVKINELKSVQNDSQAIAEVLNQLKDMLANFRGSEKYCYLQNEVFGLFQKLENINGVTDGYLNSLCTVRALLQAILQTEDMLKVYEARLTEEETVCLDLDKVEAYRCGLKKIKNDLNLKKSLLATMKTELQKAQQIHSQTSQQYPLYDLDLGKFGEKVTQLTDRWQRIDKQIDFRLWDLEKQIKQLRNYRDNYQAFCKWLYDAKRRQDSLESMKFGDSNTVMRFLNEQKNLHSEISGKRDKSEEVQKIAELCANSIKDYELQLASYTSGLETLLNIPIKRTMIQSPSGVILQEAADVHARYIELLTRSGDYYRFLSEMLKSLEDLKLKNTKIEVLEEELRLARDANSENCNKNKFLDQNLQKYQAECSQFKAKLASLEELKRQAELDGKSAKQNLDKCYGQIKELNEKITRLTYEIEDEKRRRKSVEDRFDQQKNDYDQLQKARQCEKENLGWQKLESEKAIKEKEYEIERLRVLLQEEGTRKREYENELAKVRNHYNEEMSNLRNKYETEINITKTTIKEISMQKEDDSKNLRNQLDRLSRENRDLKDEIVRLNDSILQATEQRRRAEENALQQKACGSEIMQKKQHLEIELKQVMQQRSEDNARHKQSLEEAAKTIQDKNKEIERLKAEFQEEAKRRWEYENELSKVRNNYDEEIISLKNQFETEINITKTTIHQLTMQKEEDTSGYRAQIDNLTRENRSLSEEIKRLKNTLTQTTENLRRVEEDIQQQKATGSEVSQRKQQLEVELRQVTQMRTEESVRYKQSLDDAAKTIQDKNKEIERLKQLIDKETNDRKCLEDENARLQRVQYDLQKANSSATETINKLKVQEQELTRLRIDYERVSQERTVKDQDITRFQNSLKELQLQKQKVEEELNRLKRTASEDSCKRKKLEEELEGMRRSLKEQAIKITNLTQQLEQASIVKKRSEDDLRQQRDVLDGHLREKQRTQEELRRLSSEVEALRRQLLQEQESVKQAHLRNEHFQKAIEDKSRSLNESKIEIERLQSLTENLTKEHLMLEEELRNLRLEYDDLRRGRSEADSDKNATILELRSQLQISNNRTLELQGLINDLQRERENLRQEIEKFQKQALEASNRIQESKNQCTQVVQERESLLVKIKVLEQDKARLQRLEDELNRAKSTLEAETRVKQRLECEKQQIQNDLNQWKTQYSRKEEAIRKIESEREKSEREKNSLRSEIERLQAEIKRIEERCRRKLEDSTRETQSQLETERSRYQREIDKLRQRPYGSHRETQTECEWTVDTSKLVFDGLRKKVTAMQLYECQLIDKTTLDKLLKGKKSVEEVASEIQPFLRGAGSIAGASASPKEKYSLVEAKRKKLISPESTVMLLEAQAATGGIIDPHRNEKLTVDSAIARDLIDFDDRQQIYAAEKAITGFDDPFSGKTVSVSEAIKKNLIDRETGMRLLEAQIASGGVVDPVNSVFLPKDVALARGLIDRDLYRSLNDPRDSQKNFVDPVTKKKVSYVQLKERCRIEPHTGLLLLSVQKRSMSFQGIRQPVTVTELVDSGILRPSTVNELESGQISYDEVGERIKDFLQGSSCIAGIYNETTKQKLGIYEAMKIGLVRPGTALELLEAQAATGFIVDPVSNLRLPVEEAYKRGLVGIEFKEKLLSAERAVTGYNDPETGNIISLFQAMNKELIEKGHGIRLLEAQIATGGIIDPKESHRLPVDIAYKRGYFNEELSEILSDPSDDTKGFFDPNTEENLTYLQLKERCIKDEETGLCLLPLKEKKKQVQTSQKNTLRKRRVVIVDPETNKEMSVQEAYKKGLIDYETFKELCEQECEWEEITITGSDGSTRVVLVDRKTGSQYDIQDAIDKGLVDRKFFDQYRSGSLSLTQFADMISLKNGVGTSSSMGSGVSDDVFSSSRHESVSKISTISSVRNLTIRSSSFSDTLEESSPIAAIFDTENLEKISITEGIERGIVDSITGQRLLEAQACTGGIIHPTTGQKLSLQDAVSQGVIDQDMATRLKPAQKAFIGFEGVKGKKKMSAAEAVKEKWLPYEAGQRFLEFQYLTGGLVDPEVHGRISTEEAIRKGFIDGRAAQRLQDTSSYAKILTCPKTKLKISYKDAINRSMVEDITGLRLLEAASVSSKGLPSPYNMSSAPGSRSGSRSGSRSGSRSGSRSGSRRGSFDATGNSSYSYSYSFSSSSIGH
UniProt P17812: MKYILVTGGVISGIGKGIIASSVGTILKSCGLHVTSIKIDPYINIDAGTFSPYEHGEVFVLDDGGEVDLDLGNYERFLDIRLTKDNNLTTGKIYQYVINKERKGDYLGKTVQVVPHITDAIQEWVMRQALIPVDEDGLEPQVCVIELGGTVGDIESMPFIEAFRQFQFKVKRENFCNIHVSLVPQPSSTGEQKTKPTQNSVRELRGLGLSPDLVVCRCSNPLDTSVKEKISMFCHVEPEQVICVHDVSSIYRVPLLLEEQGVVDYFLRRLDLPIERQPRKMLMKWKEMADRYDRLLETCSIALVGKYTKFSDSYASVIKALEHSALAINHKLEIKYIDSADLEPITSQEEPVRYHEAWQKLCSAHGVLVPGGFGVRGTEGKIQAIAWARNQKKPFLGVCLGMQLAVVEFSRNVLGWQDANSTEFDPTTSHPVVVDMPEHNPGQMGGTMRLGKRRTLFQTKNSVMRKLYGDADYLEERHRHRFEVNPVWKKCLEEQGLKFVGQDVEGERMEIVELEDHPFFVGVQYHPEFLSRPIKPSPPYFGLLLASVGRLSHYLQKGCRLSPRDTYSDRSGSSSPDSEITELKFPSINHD
UniProt P11413, whole entry, looked up: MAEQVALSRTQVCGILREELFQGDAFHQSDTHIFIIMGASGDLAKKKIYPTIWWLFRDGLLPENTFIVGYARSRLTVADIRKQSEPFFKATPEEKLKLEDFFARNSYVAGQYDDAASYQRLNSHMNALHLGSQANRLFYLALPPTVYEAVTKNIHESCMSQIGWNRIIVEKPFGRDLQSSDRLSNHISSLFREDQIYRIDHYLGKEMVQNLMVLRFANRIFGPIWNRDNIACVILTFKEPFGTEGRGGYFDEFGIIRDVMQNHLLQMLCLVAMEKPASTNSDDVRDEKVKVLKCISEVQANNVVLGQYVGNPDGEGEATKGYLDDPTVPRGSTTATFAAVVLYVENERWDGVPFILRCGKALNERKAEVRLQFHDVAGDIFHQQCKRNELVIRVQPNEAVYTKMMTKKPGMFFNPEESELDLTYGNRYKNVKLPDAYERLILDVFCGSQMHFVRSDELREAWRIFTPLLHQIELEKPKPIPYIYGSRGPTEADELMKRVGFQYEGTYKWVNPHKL
UniProt P17655: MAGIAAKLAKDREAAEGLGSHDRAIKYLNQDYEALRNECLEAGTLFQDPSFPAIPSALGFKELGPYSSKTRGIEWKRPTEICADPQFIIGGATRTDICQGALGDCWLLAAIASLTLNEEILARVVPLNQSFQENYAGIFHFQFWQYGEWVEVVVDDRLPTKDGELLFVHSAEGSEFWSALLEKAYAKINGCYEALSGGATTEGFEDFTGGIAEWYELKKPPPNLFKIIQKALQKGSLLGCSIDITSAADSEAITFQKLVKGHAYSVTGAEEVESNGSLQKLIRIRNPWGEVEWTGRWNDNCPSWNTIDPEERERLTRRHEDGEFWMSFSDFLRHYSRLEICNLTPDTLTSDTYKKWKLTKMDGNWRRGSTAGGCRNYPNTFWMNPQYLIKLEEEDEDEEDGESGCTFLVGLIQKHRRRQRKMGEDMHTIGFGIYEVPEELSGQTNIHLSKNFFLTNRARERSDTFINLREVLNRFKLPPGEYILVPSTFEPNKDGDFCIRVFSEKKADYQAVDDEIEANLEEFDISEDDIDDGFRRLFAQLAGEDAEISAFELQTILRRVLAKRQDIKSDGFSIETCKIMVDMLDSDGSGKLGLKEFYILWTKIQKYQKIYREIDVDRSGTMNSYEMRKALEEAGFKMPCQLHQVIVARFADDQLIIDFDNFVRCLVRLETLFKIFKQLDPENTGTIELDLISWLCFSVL
UniProt P12277: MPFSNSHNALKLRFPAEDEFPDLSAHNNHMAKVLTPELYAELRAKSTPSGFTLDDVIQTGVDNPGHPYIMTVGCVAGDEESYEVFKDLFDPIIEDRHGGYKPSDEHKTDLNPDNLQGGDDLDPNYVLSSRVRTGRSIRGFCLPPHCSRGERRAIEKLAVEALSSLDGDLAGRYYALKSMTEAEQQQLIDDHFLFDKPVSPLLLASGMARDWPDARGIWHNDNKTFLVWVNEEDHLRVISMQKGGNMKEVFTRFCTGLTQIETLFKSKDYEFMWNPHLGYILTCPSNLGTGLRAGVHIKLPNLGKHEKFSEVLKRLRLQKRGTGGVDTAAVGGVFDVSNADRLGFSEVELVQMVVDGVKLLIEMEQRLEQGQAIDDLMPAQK
UniProt P09110: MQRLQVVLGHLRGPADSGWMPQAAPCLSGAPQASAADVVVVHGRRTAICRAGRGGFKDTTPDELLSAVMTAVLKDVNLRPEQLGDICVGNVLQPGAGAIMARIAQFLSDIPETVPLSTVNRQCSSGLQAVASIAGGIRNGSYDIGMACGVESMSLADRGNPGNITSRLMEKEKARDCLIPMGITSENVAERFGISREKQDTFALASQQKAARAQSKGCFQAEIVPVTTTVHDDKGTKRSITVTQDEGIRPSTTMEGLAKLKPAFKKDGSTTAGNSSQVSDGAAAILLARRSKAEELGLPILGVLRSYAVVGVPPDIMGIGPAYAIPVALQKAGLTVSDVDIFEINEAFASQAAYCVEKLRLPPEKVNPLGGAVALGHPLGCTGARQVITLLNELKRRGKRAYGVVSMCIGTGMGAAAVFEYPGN
UniProt P13010: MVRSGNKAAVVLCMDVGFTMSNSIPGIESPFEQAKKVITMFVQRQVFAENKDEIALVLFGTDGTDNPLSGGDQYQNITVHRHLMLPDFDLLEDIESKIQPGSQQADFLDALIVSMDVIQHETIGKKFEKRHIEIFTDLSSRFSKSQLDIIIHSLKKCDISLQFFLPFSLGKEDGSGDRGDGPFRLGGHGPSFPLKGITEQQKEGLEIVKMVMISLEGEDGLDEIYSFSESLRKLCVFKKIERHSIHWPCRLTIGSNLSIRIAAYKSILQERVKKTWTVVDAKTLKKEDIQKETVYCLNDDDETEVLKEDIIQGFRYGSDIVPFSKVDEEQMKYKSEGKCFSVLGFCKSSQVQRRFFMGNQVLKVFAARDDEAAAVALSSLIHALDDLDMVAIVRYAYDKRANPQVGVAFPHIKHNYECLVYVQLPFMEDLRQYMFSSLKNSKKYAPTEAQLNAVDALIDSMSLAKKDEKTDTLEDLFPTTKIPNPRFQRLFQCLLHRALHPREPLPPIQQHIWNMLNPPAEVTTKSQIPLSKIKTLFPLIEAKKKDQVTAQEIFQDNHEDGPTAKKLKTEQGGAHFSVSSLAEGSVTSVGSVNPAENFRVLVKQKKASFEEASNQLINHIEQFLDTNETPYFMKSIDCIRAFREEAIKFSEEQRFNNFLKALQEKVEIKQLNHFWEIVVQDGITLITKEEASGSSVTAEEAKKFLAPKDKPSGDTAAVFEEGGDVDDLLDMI
UniProt P09651: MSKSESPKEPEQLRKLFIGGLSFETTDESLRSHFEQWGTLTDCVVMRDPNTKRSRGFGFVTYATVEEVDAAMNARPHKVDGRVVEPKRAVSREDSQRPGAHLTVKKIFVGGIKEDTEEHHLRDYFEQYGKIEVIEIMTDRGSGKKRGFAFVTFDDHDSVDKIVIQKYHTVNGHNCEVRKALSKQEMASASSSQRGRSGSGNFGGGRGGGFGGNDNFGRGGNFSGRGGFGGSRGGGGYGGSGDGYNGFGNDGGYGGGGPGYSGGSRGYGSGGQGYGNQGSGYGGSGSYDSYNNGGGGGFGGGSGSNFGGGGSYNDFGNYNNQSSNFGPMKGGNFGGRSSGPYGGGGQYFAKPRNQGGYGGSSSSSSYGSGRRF

compound: COC(=O)/C=C/c1ccccc1 [methyl cinnamate]; test: log2 ratio of iodoacetamide-alkyne labeling of the cysteine site, DMSO over compound (competition); higher = stronger covalent engagement of the cysteine by the compound, active = 1 or more; conditions: 500 µM; treatment time 1 h; system: HEK293T cell lysate
Summary of the method: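 For each cysteine, the log2 competition ratio is mean control-channel reporter intensity over mean compound-channel reporter intensity. HEK293T lysate (2 mg/mL) was exposed to vehicle or electrophile (500 µM, 1 h, ambient temperature), labelled with iodoacetamide alkyne (1 h), clicked to sCIP-TMT reagents, digested overnight with trypsin at 37 °C, streptavidin-enriched and analysed by Orbitrap Eclipse LC-MS/MS with FAIMS and FragPipe. Cysteines quantified in only one of three replicates, each with duplicate channels, were excluded.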

log2 ratio of iodoacetamide-alkyne labeling, inactive:
DSP C899 (UniProt P15924) 0.287
HSPD1 C442 (UniProt P10809) 0.228
DSP C174 (UniProt P15924) 0.462
U2AF1L5 C102 (UniProt P0DN76) -0.0977
UniProt P17812_C216 -0.0432
G6PD C158 (UniProt P11413) 0.0395
MTHFD2 C166 (UniProt P13995) 0.000124
PABPC1 C128 (UniProt P11940) 0.0626
EPRS C744 (UniProt P07814) 0.257
IMPDH2 C331 (UniProt P12268) 0.0594
CAPN2 C301 (UniProt P17655) 0.204
EZR C284 (UniProt P15311) 0.0279
UniProt P14618_C326 -0.121
CKB C283 (UniProt P12277) 0.182
TOP2A C216 (UniProt P11388) 0.124
CAPN2 C39 (UniProt P17655) 0.114
CAPN2 C82 (UniProt P17655) 0.193
UniProt P17812_C243 -0.112
HSP90AB1 C589 (UniProt P08238) 0.134
IRF2 C83 (UniProt P14316) -0.113
TPR C1068 (UniProt P12270) 0.0972
PDHB C306 (UniProt P11177) -0.0516
GSPT1 C276 (UniProt P15170) 0.0118
ACTN1 C370 (UniProt P12814) 0.333
ACAA1 C218 (UniProt P09110) 0.0191
ACTN1 C480 (UniProt P12814) 0.0672
ANXA6 C248 (UniProt P08133) 0.139
DSP C1855 (UniProt P15924) 0.459
MTHFD1 C195 (UniProt P11586) 0.00161
ACAA1 C123 (UniProt P09110) 0.14
PRKAR1A C39 (UniProt P10644) 0.175
CBR1 C226 (UniProt P16152) 0.469
XRCC5 C157 (UniProt P13010) 0.121
HNRNPA1 C175 (UniProt P09651) 0.0363
EEF2 C466 (UniProt P13639) -0.0963
GLUL C359 (UniProt P15104) 0.315
TPT1 C28 (UniProt P13693) -0.3

Two neighbouring records out of the list so far, quoted:
log2 ratio of iodoacetamide-alkyne labeling, inactive:
ACAA1 C123 (UniProt P09110) 0.14
PRKAR1A C39 (UniProt P10644) 0.175
